# This is one part of the list.
# Chains of the proteins cited; added tags and fusions are not shown. Lines headed by an entry give the natural chain unless they say otherwise; changes in a name come on top.
# UniProt O60443: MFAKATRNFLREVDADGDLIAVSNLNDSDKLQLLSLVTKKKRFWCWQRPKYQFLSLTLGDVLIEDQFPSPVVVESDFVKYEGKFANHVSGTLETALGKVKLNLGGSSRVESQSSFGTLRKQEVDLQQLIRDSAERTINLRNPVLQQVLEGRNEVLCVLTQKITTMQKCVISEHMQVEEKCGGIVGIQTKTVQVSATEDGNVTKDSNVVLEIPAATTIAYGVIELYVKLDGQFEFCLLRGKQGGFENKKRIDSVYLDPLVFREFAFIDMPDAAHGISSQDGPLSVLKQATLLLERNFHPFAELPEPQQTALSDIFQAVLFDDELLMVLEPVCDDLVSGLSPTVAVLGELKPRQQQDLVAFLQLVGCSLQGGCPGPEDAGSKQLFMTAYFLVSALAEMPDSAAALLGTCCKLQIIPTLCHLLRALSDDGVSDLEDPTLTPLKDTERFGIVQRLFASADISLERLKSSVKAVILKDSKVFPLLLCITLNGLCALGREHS
# UniProt Q9UKN8: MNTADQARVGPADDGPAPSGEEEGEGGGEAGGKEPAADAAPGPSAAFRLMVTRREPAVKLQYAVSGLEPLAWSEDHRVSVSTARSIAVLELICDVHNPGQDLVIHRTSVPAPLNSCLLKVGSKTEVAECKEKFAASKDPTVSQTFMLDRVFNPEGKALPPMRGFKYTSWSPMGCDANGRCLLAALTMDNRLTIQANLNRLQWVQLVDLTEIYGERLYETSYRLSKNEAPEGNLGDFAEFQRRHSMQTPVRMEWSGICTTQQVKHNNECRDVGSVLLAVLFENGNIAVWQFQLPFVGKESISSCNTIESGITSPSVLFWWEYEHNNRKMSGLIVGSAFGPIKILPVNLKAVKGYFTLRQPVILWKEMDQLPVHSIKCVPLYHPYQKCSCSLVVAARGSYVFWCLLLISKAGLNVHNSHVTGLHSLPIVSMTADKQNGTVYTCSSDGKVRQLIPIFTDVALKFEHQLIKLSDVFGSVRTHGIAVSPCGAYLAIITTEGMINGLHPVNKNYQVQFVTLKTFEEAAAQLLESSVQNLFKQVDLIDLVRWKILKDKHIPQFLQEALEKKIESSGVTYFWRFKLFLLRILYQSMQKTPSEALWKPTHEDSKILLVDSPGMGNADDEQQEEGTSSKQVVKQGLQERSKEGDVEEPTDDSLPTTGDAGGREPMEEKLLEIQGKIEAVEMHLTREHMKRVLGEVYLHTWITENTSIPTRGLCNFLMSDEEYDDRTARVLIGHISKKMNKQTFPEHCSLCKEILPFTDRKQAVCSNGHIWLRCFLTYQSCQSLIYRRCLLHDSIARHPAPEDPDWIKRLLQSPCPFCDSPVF
# UniProt P21266: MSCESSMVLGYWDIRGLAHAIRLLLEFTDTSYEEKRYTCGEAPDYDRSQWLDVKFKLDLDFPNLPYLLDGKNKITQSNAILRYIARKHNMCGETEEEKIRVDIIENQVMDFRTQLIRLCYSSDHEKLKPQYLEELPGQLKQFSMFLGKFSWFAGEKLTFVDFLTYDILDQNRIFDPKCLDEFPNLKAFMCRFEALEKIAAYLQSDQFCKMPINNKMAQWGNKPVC
# UniProt P52657, whole entry, looked up: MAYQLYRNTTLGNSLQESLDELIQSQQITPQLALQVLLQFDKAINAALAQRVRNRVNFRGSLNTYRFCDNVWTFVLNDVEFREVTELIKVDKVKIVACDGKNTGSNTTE
# UniProt P12081: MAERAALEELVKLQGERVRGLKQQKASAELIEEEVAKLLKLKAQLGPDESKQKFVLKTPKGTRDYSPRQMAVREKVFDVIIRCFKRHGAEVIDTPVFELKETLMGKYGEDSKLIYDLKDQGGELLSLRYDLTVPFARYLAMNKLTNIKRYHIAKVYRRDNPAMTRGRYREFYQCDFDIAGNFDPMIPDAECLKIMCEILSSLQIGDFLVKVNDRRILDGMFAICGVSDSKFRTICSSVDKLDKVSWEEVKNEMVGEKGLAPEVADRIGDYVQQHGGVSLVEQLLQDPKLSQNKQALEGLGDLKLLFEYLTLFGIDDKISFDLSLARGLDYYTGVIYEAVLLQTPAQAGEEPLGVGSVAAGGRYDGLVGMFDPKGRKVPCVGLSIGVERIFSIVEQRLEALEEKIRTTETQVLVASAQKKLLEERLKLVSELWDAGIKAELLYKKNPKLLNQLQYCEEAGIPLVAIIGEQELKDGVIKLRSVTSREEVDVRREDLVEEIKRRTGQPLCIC
# UniProt P78347: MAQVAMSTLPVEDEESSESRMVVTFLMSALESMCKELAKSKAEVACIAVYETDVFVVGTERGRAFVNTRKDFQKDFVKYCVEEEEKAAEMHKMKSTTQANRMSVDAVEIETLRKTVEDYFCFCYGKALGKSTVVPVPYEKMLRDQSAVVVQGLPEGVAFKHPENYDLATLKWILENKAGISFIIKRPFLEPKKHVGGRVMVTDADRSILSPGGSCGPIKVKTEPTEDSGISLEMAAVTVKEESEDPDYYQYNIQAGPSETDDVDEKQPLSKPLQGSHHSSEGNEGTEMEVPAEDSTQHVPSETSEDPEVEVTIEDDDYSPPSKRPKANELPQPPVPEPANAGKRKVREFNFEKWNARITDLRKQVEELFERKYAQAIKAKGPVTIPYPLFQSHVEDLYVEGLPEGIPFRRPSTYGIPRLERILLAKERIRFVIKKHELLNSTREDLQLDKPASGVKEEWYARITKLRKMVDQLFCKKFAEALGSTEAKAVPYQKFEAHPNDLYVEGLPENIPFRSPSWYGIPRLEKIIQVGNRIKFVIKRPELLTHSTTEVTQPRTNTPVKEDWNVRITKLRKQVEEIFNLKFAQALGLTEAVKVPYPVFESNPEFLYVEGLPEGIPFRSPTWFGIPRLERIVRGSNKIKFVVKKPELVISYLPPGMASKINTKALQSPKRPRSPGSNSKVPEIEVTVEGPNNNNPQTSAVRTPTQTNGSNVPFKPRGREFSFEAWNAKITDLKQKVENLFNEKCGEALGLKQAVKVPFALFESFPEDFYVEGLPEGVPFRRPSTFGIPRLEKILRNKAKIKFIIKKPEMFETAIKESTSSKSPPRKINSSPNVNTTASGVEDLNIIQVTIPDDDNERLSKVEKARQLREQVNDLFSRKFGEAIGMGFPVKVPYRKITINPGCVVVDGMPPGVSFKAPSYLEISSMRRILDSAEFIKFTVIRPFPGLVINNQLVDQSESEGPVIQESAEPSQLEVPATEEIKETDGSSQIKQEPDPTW
# UniProt P40939: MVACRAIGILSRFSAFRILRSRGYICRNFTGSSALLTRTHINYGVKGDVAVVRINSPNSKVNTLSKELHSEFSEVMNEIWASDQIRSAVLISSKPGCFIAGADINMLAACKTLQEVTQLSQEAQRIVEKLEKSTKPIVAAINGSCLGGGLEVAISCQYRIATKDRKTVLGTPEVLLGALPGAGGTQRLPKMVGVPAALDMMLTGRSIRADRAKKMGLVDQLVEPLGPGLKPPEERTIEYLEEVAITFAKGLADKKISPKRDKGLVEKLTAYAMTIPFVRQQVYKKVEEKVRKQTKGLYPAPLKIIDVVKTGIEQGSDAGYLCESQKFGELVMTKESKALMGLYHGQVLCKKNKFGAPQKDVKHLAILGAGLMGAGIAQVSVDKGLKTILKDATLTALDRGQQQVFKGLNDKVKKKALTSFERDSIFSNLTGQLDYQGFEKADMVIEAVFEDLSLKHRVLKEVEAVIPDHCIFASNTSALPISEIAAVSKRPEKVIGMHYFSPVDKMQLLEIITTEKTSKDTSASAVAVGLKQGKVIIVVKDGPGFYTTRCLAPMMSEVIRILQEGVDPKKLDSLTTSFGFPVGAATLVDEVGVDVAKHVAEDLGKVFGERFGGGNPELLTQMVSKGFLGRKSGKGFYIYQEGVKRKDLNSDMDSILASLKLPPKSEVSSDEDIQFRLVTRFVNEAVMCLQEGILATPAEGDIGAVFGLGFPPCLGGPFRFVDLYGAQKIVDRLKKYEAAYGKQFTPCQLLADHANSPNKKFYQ
# UniProt P06396, whole entry, looked up: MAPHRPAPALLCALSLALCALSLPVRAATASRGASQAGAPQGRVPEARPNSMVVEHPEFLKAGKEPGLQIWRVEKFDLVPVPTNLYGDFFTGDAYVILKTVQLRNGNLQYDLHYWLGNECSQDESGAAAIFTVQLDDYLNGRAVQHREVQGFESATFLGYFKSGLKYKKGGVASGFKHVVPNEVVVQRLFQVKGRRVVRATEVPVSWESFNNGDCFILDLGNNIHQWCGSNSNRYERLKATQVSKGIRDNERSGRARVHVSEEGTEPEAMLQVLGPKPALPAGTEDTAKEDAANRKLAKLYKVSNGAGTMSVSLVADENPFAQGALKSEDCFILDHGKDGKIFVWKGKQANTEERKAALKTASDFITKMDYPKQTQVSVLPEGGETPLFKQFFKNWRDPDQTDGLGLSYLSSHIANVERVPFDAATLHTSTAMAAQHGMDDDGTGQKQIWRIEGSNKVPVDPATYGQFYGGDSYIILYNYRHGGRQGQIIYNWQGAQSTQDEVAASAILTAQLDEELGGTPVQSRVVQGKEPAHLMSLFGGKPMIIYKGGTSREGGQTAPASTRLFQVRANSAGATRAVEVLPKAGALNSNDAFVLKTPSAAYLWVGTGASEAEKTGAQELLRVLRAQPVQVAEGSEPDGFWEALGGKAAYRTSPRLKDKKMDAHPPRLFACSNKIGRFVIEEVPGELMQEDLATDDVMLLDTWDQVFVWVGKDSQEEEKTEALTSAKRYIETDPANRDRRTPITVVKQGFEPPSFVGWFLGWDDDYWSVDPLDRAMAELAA
# UniProt P25098: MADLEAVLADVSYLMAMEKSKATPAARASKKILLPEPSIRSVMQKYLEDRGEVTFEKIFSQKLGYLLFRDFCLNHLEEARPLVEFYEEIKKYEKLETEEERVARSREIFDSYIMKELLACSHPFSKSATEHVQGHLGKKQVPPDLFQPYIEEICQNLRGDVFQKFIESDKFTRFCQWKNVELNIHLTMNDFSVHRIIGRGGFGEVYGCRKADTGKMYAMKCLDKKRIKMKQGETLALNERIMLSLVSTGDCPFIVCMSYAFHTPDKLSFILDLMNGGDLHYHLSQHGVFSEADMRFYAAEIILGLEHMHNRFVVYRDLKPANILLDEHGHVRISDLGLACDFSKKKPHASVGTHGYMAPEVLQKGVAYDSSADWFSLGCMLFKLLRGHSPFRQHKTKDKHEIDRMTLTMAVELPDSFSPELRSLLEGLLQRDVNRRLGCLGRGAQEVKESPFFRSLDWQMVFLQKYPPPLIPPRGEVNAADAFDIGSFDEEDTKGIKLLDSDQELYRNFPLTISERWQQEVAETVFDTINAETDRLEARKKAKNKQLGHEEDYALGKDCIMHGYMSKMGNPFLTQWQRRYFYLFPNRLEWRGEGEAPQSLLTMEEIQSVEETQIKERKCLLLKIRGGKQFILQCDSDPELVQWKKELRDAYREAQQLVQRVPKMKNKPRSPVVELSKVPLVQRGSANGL
# UniProt P29083: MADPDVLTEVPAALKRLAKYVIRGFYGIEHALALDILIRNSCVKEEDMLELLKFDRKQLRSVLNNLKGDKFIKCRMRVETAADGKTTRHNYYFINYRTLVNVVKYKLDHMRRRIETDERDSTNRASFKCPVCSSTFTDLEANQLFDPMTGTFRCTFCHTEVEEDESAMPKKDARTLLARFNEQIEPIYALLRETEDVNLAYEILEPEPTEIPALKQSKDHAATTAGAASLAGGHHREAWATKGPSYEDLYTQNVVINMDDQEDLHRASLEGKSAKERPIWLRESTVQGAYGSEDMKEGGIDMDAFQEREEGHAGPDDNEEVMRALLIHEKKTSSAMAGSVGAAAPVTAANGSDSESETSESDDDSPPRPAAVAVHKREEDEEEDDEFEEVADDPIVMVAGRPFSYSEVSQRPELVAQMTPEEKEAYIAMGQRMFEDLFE
# UniProt P13807: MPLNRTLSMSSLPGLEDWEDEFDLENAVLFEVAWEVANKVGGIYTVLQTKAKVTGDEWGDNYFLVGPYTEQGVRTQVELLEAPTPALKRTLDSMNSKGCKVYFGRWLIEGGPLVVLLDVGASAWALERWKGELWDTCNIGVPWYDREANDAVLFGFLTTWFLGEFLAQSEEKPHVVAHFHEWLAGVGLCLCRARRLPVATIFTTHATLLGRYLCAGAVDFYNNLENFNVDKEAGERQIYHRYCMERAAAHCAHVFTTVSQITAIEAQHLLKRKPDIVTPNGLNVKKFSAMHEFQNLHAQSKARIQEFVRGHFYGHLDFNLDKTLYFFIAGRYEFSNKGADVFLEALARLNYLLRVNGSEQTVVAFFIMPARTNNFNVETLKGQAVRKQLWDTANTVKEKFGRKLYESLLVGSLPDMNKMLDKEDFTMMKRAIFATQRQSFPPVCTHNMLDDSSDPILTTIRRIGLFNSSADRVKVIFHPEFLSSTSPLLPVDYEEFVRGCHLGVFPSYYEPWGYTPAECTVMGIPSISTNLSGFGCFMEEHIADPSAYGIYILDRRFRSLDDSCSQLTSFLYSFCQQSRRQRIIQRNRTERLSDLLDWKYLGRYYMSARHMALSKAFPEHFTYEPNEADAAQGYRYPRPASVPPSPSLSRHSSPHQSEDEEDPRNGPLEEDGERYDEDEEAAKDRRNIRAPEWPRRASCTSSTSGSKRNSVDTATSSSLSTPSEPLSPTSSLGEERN
# Compound: Cc1cc(ccc1-c1ccccc1)C(=O)N1CCCN(CC1)C(=O)CCl [compound 10]
# Assay: probe-labelled cysteine peptide fold change vs DMSO (competition) (log2 fold change); higher = less target engagement (more negative = stronger competition)
# Settings: THP-1, incubation time: 4 h
# 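Further: competitive profiling in live THP-1 cells: cysteine peptides tagged with an iodoacetamide desthiobiotin (IA-DTB) probe, intensity after compound treatment relative to DMSO-treated cells.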
Target,probe-labelled cysteine peptide fold change (10 µM),probe-labelled cysteine peptide fold change (50 µM)
H6PD_O95479_95_DMAPSHCAEHK (UniProt O95479),-0.0877,-0.0215
GRIPAP1_Q4V328_581_DQLEQAQEERDCHLK (UniProt Q4V328),0.0626,-0.17
GSTM1_P09488_78_ITQSNAILCYIAR (UniProt P09488),-0.0762,-0.286
HAT1_O14929_120_QIIPPGFCTNTNDFLSLLEK (UniProt O14929),0.136,0.303
GSS_P48637_409_IEPEPFENCLLR (UniProt P48637),-0.0768,0.184
GSDME_O60443_180_CGGIVGIQTK (UniProt O60443),-0.105,-0.495
HAT1_O14929_376_CLRPEELTNQMNQIEISMQHEQLEESFQELVEDYRR (UniProt O14929),-0.229,-0.0747
GRB10_Q13322_363_QYNAPTDHGLCIKPNK (UniProt Q13322),-0.0848,-0.163
HASPIN_Q8TF76_219_ASLPCSQEEATGGAK (UniProt Q8TF76),-0.236,-0.32
GTF3C4_Q9UKN8_268_HNNECR (UniProt Q9UKN8),-0.084,0.313
GSDMD_P57764_38_VVQELDHGGEFIPVTSLQSSTGFQPYCLVVR (UniProt P57764),0.0178,-0.201
GSTM3_P21266_39_RYTCGEAPDYDR (UniProt P21266),0.0259,0.0566
GTF3C1_Q12789_1704_LRPAAAPLEELTMGTSCLPDTFTK (UniProt Q12789),-0.2,-0.0592
HAUS2_Q9NVX0_89_CHTLQSMNNHLEAVLK (UniProt Q9NVX0),0.0751,-0.239
GTF3C3_Q9Y5Q9_172_GEREEAILMCMEIIR (UniProt Q9Y5Q9),0.044,0.268
GTF2A2_P52657_68_FCDNVWTFVLNDVEFR (UniProt P52657),0.00888,0.217
GTSF1_Q8WW33_100+103_QETLAESTWQCPPCDEDWDK (UniProt Q8WW33),-0.372,-0.0365
HARS_P12081_235_TICSSVDK (UniProt P12081),0.0663,-0.144
GSTCD_Q8NEC7_449_IVDFCSGGGHVGIVLAHMLPSCQVTLIENK (UniProt Q8NEC7),0.0895,-0.0866
GTF2B_Q00403_15_VTCPNHPDAILVEDYR (UniProt Q00403),0.0452,0.227
GSDME_O60443_168_CVISEHMQVEEK (UniProt O60443),-0.0652,-0.091

Target,probe-labelled cysteine peptide fold change (10 µM),probe-labelled cysteine peptide fold change (50 µM)
GTPBP1_O00178_515_YQAMVHCGSIR (UniProt O00178),0.0647,-0.0133
GSTCD_Q8NEC7_357_LLTTSTEQHPNLCEVPGVEEQSDPLFIGGPRPTMAK (UniProt Q8NEC7),-0.172,-0.201
GSTCD_Q8NEC7_466_IVDFCSGGGHVGIVLAHMLPSCQVTLIENK (UniProt Q8NEC7),-0.00281,-0.325
GSTK1_Q9Y2Q3_176_ETTEAACR (UniProt Q9Y2Q3),-0.157,0.101
GTF2I_P78347_34_MVVTFLMSALESMCK (UniProt P78347),-0.212,0.0445
GSR_P00390_107_LGGTCVNVGCVPK (UniProt P00390),-0.0657,-0.055
HADHB_P55084_458_EGGQYGLVAACAAGGQGHAMIVEAYPK (UniProt P55084),-0.039,-0.29
HADHA_P40939_97_PGCFIAGADINMLAACK (UniProt P40939),-0.104,0.273
GSTM1_P09488_115_IRVDILENQTMDNHMQLGMICYNPEFEK (UniProt P09488),0.127,-0.0126
GTF2H2_Q13888_139_AVDMTCHGEPSLYNSLSIAMQTLK (UniProt Q13888),0.136,-0.00823
GSDMD_P57764_191_FSLPGATCLQGEGQGHLSQK (UniProt P57764),-0.11,-0.522
GSR_P00390_134_VMWNTAVHSEFMHDHADYGFPSCEGK (UniProt P00390),0.0219,0.103
GSTM4_Q03013_174_IFEPNCLDAFPNLK (UniProt Q03013),0.162,0.311
HADHA_P40939_747_QFTPCQLLADHANSPNKK (UniProt P40939),-0.211,-0.236
GTF3C2_Q8WUA4_828_MQEGEGHSQLCLDR (UniProt Q8WUA4),-0.094,-0.0629
GRN_P28799_165_VHCCPHGAFCDLVHTR (UniProt P28799),0.0754,-0.0982
GTF3C4_Q9UKN8_764_QAVCSNGHIWLR (UniProt Q9UKN8),0.0419,0.185
GSPT1_P15170_453_QDQVCIAR (UniProt P15170),-0.0979,0.0274
GTF2F2_P13984_116_AECRPAASENYMR (UniProt P13984),-0.162,-0.16
GTF3C1_Q12789_1188_VGSELCAGWEEQFEVDREPSLDR (UniProt Q12789),-0.451,-0.678
GSN_P06396_331_SEDCFILDHGKDGK (UniProt P06396),0.0174,-0.0746

Target,probe-labelled cysteine peptide fold change (10 µM),probe-labelled cysteine peptide fold change (50 µM)
H2AFY2_Q9P0M6_286_CEEQLEETIK (UniProt Q9P0M6),0.0719,0.424
GRK2_P25098_559_DCIMHGYMSK (UniProt P25098),-0.212,-0.433
GRPEL2_Q8TAA5_87_AIADCENIR (UniProt Q8TAA5),-0.139,-0.27
GSN_P06396_331_SEDCFILDHGK (UniProt P06396),0.0864,-0.0241
H6PD_O95479_86_ALESLSCPK (UniProt O95479),-0.122,-0.0298
GRAMD4_Q6IC98_463_GNFHEIFNLTENERPLAVCENGWR (UniProt Q6IC98),0.224,-0.546
GTF3A_Q92664_222_ETHKEEILCEVCR (UniProt Q92664),0.255,-0.13
GUSB_P08236_396_TSHYPYAEEVMQMCDR (UniProt P08236),0.365,0.174
GRSF1_Q12849_476_YIELFLNSCPK (UniProt Q12849),-0.167,-0.33
GSTM3_P21266_119_LCYSSDHEK (UniProt P21266),-0.0202,-0.143
GTF3C1_Q12789_544_ACQSLASR (UniProt Q12789),-0.312,-0.43
GTF2E1_P29083_157_CTFCHTEVEEDESAMPK (UniProt P29083),0.0528,-0.0736
GPX4_P36969_134_ICVNGDDAHPLWK (UniProt P36969),0.449,0.437
HACE1_Q8IYU2_508_IIFDHFHFLLECPELMSR (UniProt Q8IYU2),-0.00126,0.00429
HAUS5_O94927_350_CCLWTELK (UniProt O94927),-0.0042,-0.506
GTF2H1_P32780_478_HFWSCFPVNTPFLEEK (UniProt P32780),0.349,0.511
GPX1_P07203_78_GLVVLGFPCNQFGHQENAKNEEILNSLK (UniProt P07203),-0.208,-1.3
HAUS3_Q68CZ6_3_SCGNEFVETLK (UniProt Q68CZ6),0.0135,0.066
GTPBP10_A4D1E9_167_SSLLSCVSHAK (UniProt A4D1E9),-0.0953,0.038
GTSE1_Q9NYZ3_539_AVGSPLCVPAR (UniProt Q9NYZ3),0.32,0.516
GSR_P00390_484_VVGIHMQGLGCDEMLQGFAVAVK (UniProt P00390),0.071,0.0314

# Quoted from the listing:
# probe-labelled cysteine peptide fold change (10 µM) with GSR_P00390_484_VVGIHMQGLGCDEMLQGFAVAVK (UniProt P00390) reads 0.071
# probe-labelled cysteine peptide fold change (10 µM) with GSTM1_P09488_115_IRVDILENQTMDNHMQLGMICYNPEFEK (UniProt P09488) reads 0.127
# probe-labelled cysteine peptide fold change (50 µM) with HADHA_P40939_97_PGCFIAGADINMLAACK (UniProt P40939) reads 0.273
# probe-labelled cysteine peptide fold change (10 µM) with GTF2H1_P32780_478_HFWSCFPVNTPFLEEK (UniProt P32780) reads 0.349
# probe-labelled cysteine peptide fold change (50 µM) with GTF2E1_P29083_157_CTFCHTEVEEDESAMPK (UniProt P29083) reads -0.0736
# probe-labelled cysteine peptide fold change (10 µM) with HARS_P12081_235_TICSSVDK (UniProt P12081) reads 0.0663

# Remaining list, next part.

Target,probe-labelled cysteine peptide fold change (10 µM),probe-labelled cysteine peptide fold change (50 µM)
HARS_P12081_224_ILDGMFAICGVSDSK (UniProt P12081),0.0309,-0.174
HAT1_O14929_101_VDENFDCVEADDVEGK (UniProt O14929),-0.209,-0.64
GTF3A_Q92664_62_LDAHLCK (UniProt Q92664),-0.0616,-0.188
GRK2_P25098_72_DFCLNHLEEARPLVEFYEEIKK (UniProt P25098),0.156,0.0802
GSR_P00390_278_SFDSMISTNCTEELENAGVEVLK (UniProt P00390),-0.123,0.0349
GYS1_P13807_564+575_SLDDSCSQLTSFLYSFCQQSR (UniProt P13807),-0.166,-0.271
GYS1_P13807_251_AAAHCAHVFTTVSQITAIEAQHLLK (UniProt P13807),0.218,0.221
HACL1_Q9UJ83_307_FIQVDICAEELGNNVKPAVTLLGNIHAVTK (UniProt Q9UJ83),0.0124,0.19
HAGH_Q16775_157+164_CLATPCHTSGHICYFVSK (UniProt Q16775),0.228,0.406
GUK1_Q16774_98_ICVLDVDLQGVR (UniProt Q16774),0.271,0.28
GSR_P00390_467_MVCANK (UniProt P00390),0.158,0.355
HAUS1_Q96CS2_156_CLQEDVK (UniProt Q96CS2),0.151,0.281
GTPBP8_Q8N3Z3_114_IDHAPDLPRPEVCFIGR (UniProt Q8N3Z3),0.000277,-0.283
GTF3C5_Q9Y5Q8_75_DPYCHPVCANR (UniProt Q9Y5Q8),0.121,0.621
HAT1_O14929_27_CNTNTAIELK (UniProt O14929),-0.134,-0.075
GTF2A2_P52657_98_IVACDGK (UniProt P52657),-0.17,-0.0648
HADHA_P40939_747_QFTPCQLLADHANSPNK (UniProt P40939),-0.314,0.0963
GTF2I_P78347_46_SKAEVACIAVYETDVFVVGTER (UniProt P78347),0.101,-0.0972
